Data published in PubChem BioAssay AID493014 (National Center for Advancing Translational Sciences (NCATS), 2011).
Some of the results follow. These are further read-outs of the screen, such as a control signal, another cell line or another target. No call is given for them. The list favours compounds with an active or inconclusive main result. The note in brackets gives the kind of curve behind each potency; many fits are weak.

Experiment: qHTS Assay to Find Inhibitors of Chronic Active B-Cell Receptor Signaling
Conditions: ABC-DLBCL IkBa-CBG/CBR reporter, luminescence ratio (green luciferase fused to IkBa over red control in TMD8 lymphoma cells), 4 h
Summary of the method: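 TMD8 ABC-DLBCL cells carrying doxycycline-inducible green luciferase fused to IkappaBalpha plus unfused red luciferase were exposed to compounds (up to 46 uM) for 4 hrs at 37C. Activity came from the overlap-corrected green/red luminescence ratio.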

[1] = measured here: CBR red luminescence, cell number
[2] = measured here: IkBa-CBG green luminescence

| SMILES | AC50 [1] | AC50 [2] |
| --- | --- | --- |
| CC1(C)CC(=O)C(/C=N/c2ncccc2C(=O)O)=C(O)C1 | 18.4 µM [rising, single point] | 29.1 µM [falling, single point] |
| O=C1N[C@H](Cc2ccccc2)COC(=O)[C@@H](Cc2ccc(F)cc2)CC/C=C/C[C@H]1CC(=O)N(CCO)Cc1ccccc1 | 8.2 µM [falling, single point] | – |
| COc1ccc(Cc2nc3ccccc3[nH]c2=O)cc1 | 1.41 µM [falling, partial curve, poor fit] | – |
| CCCc1[nH]n(-c2ccc([N+](=O)[O-])cc2)c(=O)c1C=NCCc1c[nH]c2ccccc12 | 0.58 µM [rising, partial curve, poor fit] | – |
| COc1ccccc1/C=C1\CCCC2=C1Nc1nnnn1C2c1ccccc1OC (configuration not stated) | 29.1 µM [falling, single point] | – |
| COc1ccc(C(=O)Oc2ccc[nH]c2=O)cc1 | 3.98 µM [falling, single point] | – |
| CCN(CC)c1c([N+](=O)[O-])c(=O)n(CC)c2ccccc12 | 0.141 µM [rising, full curve, poor fit] | – |
| O=C(CSc1nn(-c2ccccc2)c(=S)s1)NC(=O)NCc1ccco1 | 0.164 µM [falling, full curve, poor fit] | – |
| CN(C)/C=N/c1sc2c(c1C#N)CCCC2 | 11.2 µM [rising, partial curve, poor fit] | 17.8 µM [falling, partial curve] |
| COc1cccc(CNC(=O)C2Cc3cc(S(=O)(=O)N4CCCC4)ccc3N2C(C)=O)c1OC (configuration not stated) | 12.6 µM [rising, partial curve, poor fit] | – |
| O=C1CSC(=Nc2cccc(C(=O)O)c2)N1 | 25.1 µM [falling, single point] | – |
| Cc1cc(F)ccc1S(=O)(=O)N1CCCOC1CNC(=O)C(=O)NCc1cccnc1 (configuration not stated) | 5.01 µM [rising, partial curve, poor fit] | – |
| CCc1cccc(CC)c1N(COC)C(=O)Cn1ccccc1=N | 2.82 µM [rising, partial curve, poor fit] | – |
| C=C(C(=O)c1ccccc1)C(C)CC(=O)c1ccccc1 (configuration not stated) | 10.3 µM [falling, partial curve] | – |
| Cc1c(Cl)cccc1NC(=O)CSc1nc2c(c(=O)[nH]1)CCCC2 | 0.92 µM [falling, full curve, poor fit] | – |
| COc1cccc(Oc2ccc(S(=O)(=O)N3CCCC3)cc2[N+](=O)[O-])c1 | 6.31 µM [falling, partial curve, poor fit] | – |
| CCC(=O)NCCc1nc2cc(NC(=O)c3cccs3)ccc2n1C | 8.91 µM [falling, partial curve, poor fit] | – |
| CCN(CC(=O)Nc1ccccc1OC)C(=O)c1cc(-c2ccccc2)nn1-c1ccccc1 | 0.731 µM [rising, full curve] | – |
| O=C(COC(=O)/C=C/c1cccc(Br)c1)NC1CCCCC1 | 29.1 µM [rising, single point] | – |
| CCCCC(=O)N(c1ccc(OC)cc1)C1C=CS(=O)(=O)C1 (configuration not stated) | 1.64 µM [rising, full curve, poor fit] | – |
| CC1CCN(c2nncc3ccccc23)CC1 | 3.98 µM [rising, partial curve, poor fit] | – |

| SMILES | AC50 [1] | AC50 [2] |
| --- | --- | --- |
| Cc1c(Cl)cccc1NC(=O)CNC(=O)C1CC(=O)N(C2CCCC2)C1 (configuration not stated) | 4.11 µM [falling, partial curve] | – |
| O=C(N/N=C/c1ccc([N+](=O)[O-])o1)c1ccncc1 | 17.8 µM [falling, single point] | – |
| COc1ccc(N2C(=O)CC(Sc3nnc(-c4ccccc4)o3)C2=O)cc1 (configuration not stated) | 35.5 µM [falling, single point] | – |
| COC(=O)c1cc(Br)c(=O)n(CC(C)C)c1 | 0.092 µM [falling, full curve, poor fit] | – |
| CC(C)Cn1c(SC(C)C(=O)Nc2ccc(N3CCOCC3)cc2)nc2ccccc21 (configuration not stated) | 18.4 µM [rising, single point] | – |
| Cc1ccc(Nc2c(F)c(F)c(F)c(F)c2C(=O)O)cc1 | 17.8 µM [rising, partial curve, poor fit] | – |
| CCCCSc1nnc(-c2ccccc2)c2ccccc12 | 4.11 µM [rising, full curve] | – |
| CCOc1ccc(Nc2nc(N)c3ccccc3n2)cc1 | 11.2 µM [falling, partial curve] | – |
| COc1ccc(OC)c(C(C(=O)NCc2ccco2)N(C(=O)Cn2nnc3ccccc32)C(C)C)c1 (configuration not stated) | 0.92 µM [rising, partial curve, poor fit] | – |
| COc1ccc(Nc2nccc(OC)c2C#N)cc1 | 10 µM [rising, partial curve] | – |
| O=c1c(Cl)c(Cl)cnn1Cc1ccc(F)cc1 | 7.94 µM [falling, partial curve, poor fit] | 2.51 µM [rising, full curve, poor fit] |
| CCCc1cc(C(N)=O)c(NC(=O)c2ccoc2C)s1 | 0.82 µM [falling, partial curve, poor fit] | – |
| Cc1ccc(NS(=O)(=O)c2cc(Br)cc3c2N(C(=O)C2CC2)CC3)cc1C | 35.5 µM [falling, single point] | – |
| O=C(CSc1nc2ncc(Cl)cc2[nH]1)Nc1ccccc1-c1ccccc1 | 12.6 µM [falling, partial curve, poor fit] | – |
| CC(C)(C)NC(=O)C(=O)N/N=C/c1ccc(F)cc1 | 14.1 µM [falling, single point] | – |
| Cc1ccsc1/C=N/Nc1cccc(C(=O)O)c1 | 0.708 µM [falling, full curve] | – |
| COc1ccccc1CNC(=O)c1cc(-c2ccccc2)nn1Cc1cc(C)no1 | 20.6 µM [falling, partial curve, poor fit] | – |
| CCOC(=O)N1CCC(NC(=O)c2cc3c(-c4ccc(Cl)cc4)nn(C)c3s2)CC1 | 10.3 µM [rising, single point] | – |
| O=c1cnnc(N/N=C/C2CC=CCC2)[nH]1 (configuration not stated) | – | 35.5 µM [falling, partial curve, poor fit] |
| Cc1ccc(C(=O)C(NC(=O)c2ccco2)N2CCOCC2)cc1 (configuration not stated) | 0.82 µM [falling, partial curve, poor fit] | – |
| CC(=O)NNc1cccc(Cl)n1 | 1.12 µM [falling, full curve] | – |

| SMILES | AC50 [1] | AC50 [2] |
| --- | --- | --- |
| Cn1ccnc1SC(=O)N1c2ccccc2Sc2ccccc21 | 20.6 µM [rising, single point] | – |
| CC1=NN(c2ccc(Cl)c(C(=O)O)c2)C(=O)/C1=C/c1ccc(-c2ccccc2[N+](=O)[O-])o1 | 22.4 µM [falling, single point] | – |
| COc1ccc(C)cc1Nc1n[n+](-c2ccccc2)c(-c2ccc(SC)cc2)s1 | 35.5 µM [falling, single point] | 35.5 µM [falling, partial curve, poor fit] |
| CC(N=C1CC(C)(C)CC(=O)/C1=C(/O)CCCN1C(=O)c2ccccc2C1=O)C(=O)O (configuration not stated) | 11.2 µM [falling, single point] | – |
| O=C(O)c1ccc(N/N=C/C=C/c2ccc([N+](=O)[O-])o2)cc1 | 0.282 µM [falling, full curve, poor fit] | – |
| C/C(=N/NC(=O)OC(C)(C)C)c1ccco1 | 0.82 µM [falling, full curve] | – |
| O=[N+]([O-])c1ccc(N2CCN(c3ccccc3)CC2)cc1 | 2.24 µM [rising, full curve] | – |
| O=C(c1ccco1)N1CCN(c2nc3ccsc3c(=O)s2)CC1 | 6.51 µM [rising, partial curve, poor fit] | – |
| CC(C)(C)c1ccccc1NC(=O)Cn1c(=O)cnc2ccccc21 | – | 4.11 µM [falling, partial curve, poor fit] |
| CC(=O)c1cccc(Nc2cc(C)nc3c(C)cccc23)c1 | 35.5 µM [falling, single point] | – |
| CN(C)c1ccc(C(=O)/C=C/c2cccnc2)cc1 | 14.1 µM [falling, partial curve, poor fit] | – |
| Cc1ccc(C(=O)CSc2nnc(-c3cccnc3)n2N)cc1 | 23.1 µM [falling, single point] | – |
| O=C(Nc1ccc2c(c1)OCO2)c1cc(-c2ccccc2Cl)on1 | 0.282 µM [falling, full curve, poor fit] | – |
| COc1ccc2c(c1)CCCC21NC(=O)N(CC(=O)c2cc(F)ccc2F)C1=O (configuration not stated) | 0.651 µM [rising, partial curve, poor fit] | – |
| Cc1noc(/C=C/c2ccco2)c1S(=O)(=O)N1CCC(C(=O)N2CCc3ccccc32)CC1 | 1.16 µM [rising, full curve, poor fit] | – |
| COc1ccc(CNC(=O)C(C)OC(=O)C23CC4CC(CC(O)(C4)C2)C3)cc1 (configuration not stated) | 16.4 µM [rising, partial curve] | – |
| COc1ccccc1N(CC(=O)NC1CCCCC1)S(=O)(=O)c1cccs1 | 31.6 µM [falling, single point] | – |
| COc1ccccc1NC(=O)Cn1nnc(C(=O)NCc2ccc3c(c2)OCO3)c1N | 2.51 µM [falling, partial curve, poor fit] | – |
| O=C(NC(=S)Nc1ccccc1Br)c1ccco1 | 2.82 µM [rising, partial curve, poor fit] | – |
| COC(=O)COc1cccc(NC(=O)c2ccccc2)c1 | 35.5 µM [falling, single point] | – |
| CC(=O)c1sccc1NC(=O)CC(C)(C)CC(=O)O | 0.112 µM [rising, full curve, poor fit] | – |

Random excerpt: four compounds from above, in no set order.

| SMILES | AC50 [1] | AC50 [2] |
| --- | --- | --- |
| Cc1ccc(Nc2c(F)c(F)c(F)c(F)c2C(=O)O)cc1 | 17.8 µM [rising, partial curve, poor fit] | – |
| CCCCSc1nnc(-c2ccccc2)c2ccccc12 | 4.11 µM [rising, full curve] | – |
| COc1ccccc1NC(=O)Cn1nnc(C(=O)NCc2ccc3c(c2)OCO3)c1N | 2.51 µM [falling, partial curve, poor fit] | – |
| CC(C)(C)NC(=O)C(=O)N/N=C/c1ccc(F)cc1 | 14.1 µM [falling, single point] | – |
